# Results of single-concentration screens

By UniProt entry, the sequences of proteins in these tests, tags left out. Residues count along the entry.
UniProt P9WNZ1, whole entry: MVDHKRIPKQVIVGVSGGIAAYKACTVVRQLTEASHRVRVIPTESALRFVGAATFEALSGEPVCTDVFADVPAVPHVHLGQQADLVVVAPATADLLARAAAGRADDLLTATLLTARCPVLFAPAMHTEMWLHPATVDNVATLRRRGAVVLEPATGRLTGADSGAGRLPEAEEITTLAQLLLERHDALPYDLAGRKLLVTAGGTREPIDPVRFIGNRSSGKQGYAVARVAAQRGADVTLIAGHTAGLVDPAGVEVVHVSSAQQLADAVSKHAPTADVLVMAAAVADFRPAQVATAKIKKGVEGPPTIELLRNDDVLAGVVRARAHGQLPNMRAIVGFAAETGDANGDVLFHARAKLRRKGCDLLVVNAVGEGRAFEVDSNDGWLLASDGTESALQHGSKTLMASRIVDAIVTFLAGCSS
UniProt Q4DA54, 1-478: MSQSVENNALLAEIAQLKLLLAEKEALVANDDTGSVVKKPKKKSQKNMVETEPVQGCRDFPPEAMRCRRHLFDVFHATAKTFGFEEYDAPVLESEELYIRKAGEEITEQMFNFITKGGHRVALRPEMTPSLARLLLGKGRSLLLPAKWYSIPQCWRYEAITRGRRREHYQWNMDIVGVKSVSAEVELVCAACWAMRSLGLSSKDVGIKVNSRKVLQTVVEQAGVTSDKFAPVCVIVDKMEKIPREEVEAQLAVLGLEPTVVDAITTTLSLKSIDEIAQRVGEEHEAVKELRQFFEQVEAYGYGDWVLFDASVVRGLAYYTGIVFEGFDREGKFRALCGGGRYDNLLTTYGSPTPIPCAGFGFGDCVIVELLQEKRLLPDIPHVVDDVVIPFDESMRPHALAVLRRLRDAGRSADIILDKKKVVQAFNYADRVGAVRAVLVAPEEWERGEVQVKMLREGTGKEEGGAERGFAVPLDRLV

A: 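Coenzyme A biosynthesis protein CoaBC, Mycobacterium tuberculosis (UniProt P9WNZ1). Enzyme assay of CoaBC with a phosphate dye (Biomol Green) read at 650 nm. Concentration: 30 µM. Higher reads as stronger inhibition, judged from the few compounds that gave an IC50. Most strong results did not repeat in a second test. Size under these conditions: about 67,000 compounds, about 40 of them at 50% or above in at least one test.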
B: 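Histidine-tRNA ligase, Trypanosoma cruzi CL Brener (UniProt Q4DA54). Enzyme assay of histidyl-tRNA synthetase; the read-out is not stated. Compounds at 30 µM. The record gives no direction; compounds that gave an IC50 in retests scored well above the rest, so higher reads as stronger inhibition. Size under these conditions: about 69,000 compounds, about 31 of them at 50% or above in at least one test.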

Values are the deposited “Percent Effect”, in %. The controls that fix the scale are not given in the record; negative values are as filed. Compounds were drawn at random from those tested, without regard to their results. A dash means the value is not listed here; it may have been measured.

Compound	A	B
O=C(NS(=O)(=O)c1ccccc1C(F)(F)F)c1cccc2c1OCCO2	0.6402%	-3.067%
Cc1ccc(OCC(=O)Nc2cc(C(=O)O)cc(S(C)(=O)=O)c2)cc1C	18.93%	-0.5525%
COCCN(C)C1COC2(CCN(Cc3cccc(F)c3)CC2)C1 (centres undefined)	0.8403%	4.132%
Cc1cnc(N2CCCC(O)C2)nc1-c1ccnn1C (centres undefined)	12.21%	-30.68%
CC1(C(=O)N2CCOCC2)CN(Cc2ccccn2)CCO1 (centres undefined)	-4.722%	3.784%
CC(O)CN(C)C(=O)CCNC(=O)OC(C)(C)C (centres undefined)	2.149%	4%
CSc1nc2cc(C)n(CC(=O)N3CCCC3)c2c(=O)n1CC(C)C	2.133%	17.07%
CC(C)N1CCN(C(=O)c2csc3nc(-c4ccc(Cl)cc4)cn23)CC1	1.399%	6.25%
Cn1cc(C(=O)NCC(Cc2cccc(F)c2)N2CCCCC2=O)nn1 (centres undefined)	2.036%	10.84%
CCC(C(=O)NCc1ccn(-c2ccc(F)cc2)n1)N1CCCC1=O (centres undefined)	1.594%	7.368%
Cc1nc(C2(NCc3cccc(F)c3F)CCCCC2)no1	-	7.792%
CCN1CCN(C(=O)c2ccnc(N(C)C)c2)CC1	-2.564%	6.897%
Cc1nc(CN2CCc3nn(C(C)C)c(=O)cc3C2)oc1C	2.17%	6.061%
CCC1CN(C(=O)NCc2cccnc2-n2cccn2)CCO1 (centres undefined)	0.5222%	2.825%
O=C(CN1CCOC(Cn2cncn2)C1)NC(C1CC1)C1CC1 (centres undefined)	4.218%	4.046%
CC(NC(N)=O)C(=O)NCc1cc(Br)ccc1F (centres undefined)	0.609%	-5.357%
O=C(CSC1CCc2ccccc2NC1=O)Nc1ccc(CCO)cc1 (centres undefined)	-3.065%	3.636%
CCc1cnc(N)nc1N[C@@H](C)c1ncccc1C	4.369%	8.287%
COc1ccc(C(=O)NCCCC2(C3OCCO3)CCOCC2)cc1	2.355%	3.665%
CCn1cc(CN(C)S(=O)(=O)c2ccc(NC(C)=O)cc2)cn1	9.287%	2.732%
CCN1C[C@@H]2[C@@H](OC)CCN(S(=O)(=O)c3ccccc3)[C@@H]2C1	-2.591%	1.639%
O=C(NCC(c1cccs1)N1CCOCC1)c1ccc(F)cc1Cl (centres undefined)	-1.775%	3.175%
CCN(CC)CCSc1nnc(N2CCN(c3ccccc3)CC2)s1	1.631%	-0.4878%
CC(C)c1nsc(N2CCc3sccc3C2)n1	2.355%	2.618%
CCc1ccc(S(=O)(=O)Nc2cnc(N3CCOCC3)nc2)cc1	0.6274%	-7.317%
Cc1ccnc(N2CCN(Cc3ccccc3)CC(O)C2)c1 (centres undefined)	10.32%	6.122%
CCc1ccc(S(=O)(=O)Nc2ccn(CC(=O)OC)n2)cc1	9.221%	6.383%
c1ccc(CNC[C@H]2COCc3nc4cccnc4n32)cc1	-2.258%	2.488%
Cn1ccc(C(=O)N(CC(F)F)c2cccc(Cl)c2)cc1=O	8.12%	4.865%
Cc1nc(C)c(C(=O)NCCNc2ncccc2C(F)(F)F)s1	-0.5821%	3.779%
NC(=O)CCn1cc(CNCCCc2ccccc2O)c2ccccc21	-31.02%	6.383%
Cc1nc(-c2ccccc2)ccc1C(=O)N1CCn2c(C)nnc2C1	10.89%	5.882%
CN(C)Cc1noc2c1CN(Cc1ccsc1)CC2	-	4.908%
CCOc1cc(CNC(=O)C(C#N)c2nc(C)cs2)ccc1OC(F)F (centres undefined)	-1.681%	3.333%
CCc1nc(C2CCCN2Cc2ccn(C)c(=O)c2)no1 (centres undefined)	2.105%	4.399%
CC(C1CC1)N(C)C(=O)c1cnc(-c2ccc3c(c2)OCO3)s1 (centres undefined)	-5.33%	3.306%
COc1ccc(OC)c(CNC2CCCN(c3cccnn3)C2)c1 (centres undefined)	0.7426%	7.229%
CC(C)COc1ccccc1CN(C)C(=O)c1cc(=O)[nH]c(=O)[nH]1	2.046%	4.04%
CN(Cc1cn2ccccc2c1C#N)C1CCCN(c2cccnn2)C1 (centres undefined)	0.527%	27%
COc1cccc([C@H]2CN(CCCS(=O)(=O)N(C)C)C[C@@H]2N)c1	-15.16%	5.419%
O=C(CN1CCN(C(=O)c2cccc(-c3ccoc3)c2)CC1)C1CC1	-5.976%	1.053%
CC(C)(O)CCc1cccc(C(=O)NCc2nccs2)c1	10.22%	7.879%
CN(c1ncccc1CNC(=O)c1cscn1)C1CCCCC1	-2.073%	-3.012%
CN(C)C(=O)C1(C)CN(Cc2cn(C)c3ccc(F)cc23)CCO1 (centres undefined)	5.463%	6.154%
c1cc(CN2CCOCC3(CCN(CC4CCOCC4)CC3)C2)ccn1	6.799%	12.24%
Cc1nc(-c2cccnc2)ncc1C(=O)N1CCCC(N(C)C)CC1 (centres undefined)	3.562%	-10.84%
Cn1cccc1C(=O)N1C[C@H]2CN(Cc3cccnc3)C[C@H]2C1	3.475%	2.913%
O=C(c1ccsc1)N1CCC2(CC1)CCN(S(=O)(=O)C1CC1)CC2	4.084%	7.538%
CC(C)(C)c1cnc(CN2C(=O)CC3(CCSC3)C2=O)o1 (centres undefined)	7.923%	1.571%
Cc1ccsc1C(=O)N1CC(C(=O)NCC2CC2)C2(CCOCC2)C1 (centres undefined)	-0.1267%	3.261%
CC(CO)NS(=O)(=O)c1cccc(C(C)C)c1 (centres undefined)	0.3686%	1.19%
Cc1nc(C(C)C)sc1C(=O)N(C)Cc1cnn(C)c1	0.1965%	-6.897%
CCN1CCc2cc(-c3cncn3CC(=O)NC(C)(C)C)ccc21	0.8653%	12.17%
CCc1c(C)nn(C)c1NC(=O)N1CCCOC(Cn2cccn2)C1 (centres undefined)	9.856%	6.329%
CCc1nccc(CN2CCCC(c3nn(C)c(=O)n3CC)C2)n1 (centres undefined)	4.405%	-0.8475%
CC(C)CCNC(=O)c1c(-n2cnnn2)sc2c1CCCC2	-2.152%	-2.484%

Some entries from above, unchanged:

CCC(C(=O)NCc1ccn(-c2ccc(F)cc2)n1)N1CCCC1=O (centres undefined) read A: 1.594%; B: 7.368%.
c1ccc(CNC[C@H]2COCc3nc4cccnc4n32)cc1 read A: -2.258%; B: 2.488%.
CCC1CN(C(=O)NCc2cccnc2-n2cccn2)CCO1 (centres undefined) read A: 0.5222%; B: 2.825%.
COCCN(C)C1COC2(CCN(Cc3cccc(F)c3)CC2)C1 (centres undefined) read A: 0.8403%; B: 4.132%.
CCOc1cc(CNC(=O)C(C#N)c2nc(C)cs2)ccc1OC(F)F (centres undefined) read A: -1.681%; B: 3.333%.
Cc1nc(C2(NCc3cccc(F)c3F)CCCCC2)no1 read B: 7.792%.
COc1cccc([C@H]2CN(CCCS(=O)(=O)N(C)C)C[C@@H]2N)c1 read A: -15.16%; B: 5.419%.

From ChEMBL document CHEMBL3988442, “University of Dundee, Small-Polar-MMV Screening Library” (2021).